This note sets out measurements from paper doi:10.1101/2023.03.10.532066.

The target of test [1] is T1, GLK2-nLUC (Arabidopsis thaliana) (UniProt Q9FFH0).
T1 sequence: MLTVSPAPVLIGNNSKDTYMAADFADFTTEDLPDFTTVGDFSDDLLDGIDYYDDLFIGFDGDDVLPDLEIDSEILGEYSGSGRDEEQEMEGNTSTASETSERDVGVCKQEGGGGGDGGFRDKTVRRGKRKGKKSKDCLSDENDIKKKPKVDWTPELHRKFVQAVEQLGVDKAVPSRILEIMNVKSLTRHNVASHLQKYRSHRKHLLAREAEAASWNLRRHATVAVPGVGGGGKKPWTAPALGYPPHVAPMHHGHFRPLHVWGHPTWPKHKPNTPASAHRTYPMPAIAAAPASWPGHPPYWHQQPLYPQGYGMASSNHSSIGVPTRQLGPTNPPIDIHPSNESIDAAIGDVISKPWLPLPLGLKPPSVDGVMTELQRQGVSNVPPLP
Description: split reporter.

For test [2], the target named is T2, GST-GLK1 (GOLDEN2-LIKE 1) (Arabidopsis thaliana) (UniProt Q9SIV3).
T2 sequence: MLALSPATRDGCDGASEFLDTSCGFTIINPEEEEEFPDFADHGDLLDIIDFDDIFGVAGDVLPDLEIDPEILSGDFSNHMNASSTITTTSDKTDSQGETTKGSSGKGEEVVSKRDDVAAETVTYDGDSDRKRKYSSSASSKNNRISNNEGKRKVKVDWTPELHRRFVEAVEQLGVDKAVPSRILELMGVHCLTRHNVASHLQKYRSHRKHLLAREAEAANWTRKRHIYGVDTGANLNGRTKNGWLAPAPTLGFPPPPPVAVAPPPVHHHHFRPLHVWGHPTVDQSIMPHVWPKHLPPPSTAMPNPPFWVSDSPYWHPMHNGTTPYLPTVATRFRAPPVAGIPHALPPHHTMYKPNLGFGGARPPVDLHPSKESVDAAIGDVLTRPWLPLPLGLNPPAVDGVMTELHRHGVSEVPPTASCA
The test is described as follows: pull-down.

For test [3], the target named is T3, GST-GLK2 (GOLDEN2-LIKE 2) (Arabidopsis thaliana) (UniProt Q9FFH0).
T3 sequence: T1 sequence
Description: pull-down.

Results are given in words; binding and its absence hold for the method and conditions named. In cells and extracts the contact can be indirect. Some results given as binding are weak or reduced against the parent protein; the word gives no strength. Where a sequence is shown, tags or fusion partners need not be part of it.

B1: PAP1 (PRODUCTION OF ANTHOCYANIN PIGMENTS 1) (protein, UniProt Q9FE25 1-248)
chain: MEGSSKGLRKGAWTTEEDSLLRQCINKYGEGKWHQVPVRAGLNRCRKSCRLRWLNYLKPSIKRGKLSSDEVDLLLRLHRLLGNRWSLIAGRLPGRTANDVKNYWNTHLSKKHEPCCKIKMKKRDITPIPTTPALKNNVYKPRPRSFTVNNDCNHLNAPPKVDVNPPCLGLNINNVCDNSIIYNKDKKKDQLVNNLIDGDNMWLEKFLEESQEVDILVPEATTTEKGDTLAFDVDQLWSLFDGETVKFD
For the molecule B1, in test [1], the binding entry is reported as “no binding”.

B2: His-TT8 (protein, UniProt Q9FT81 1-518)
chain: MDESSIIPAEKVAGAEKKELQGLLKTAVQSVDWTYSVFWQFCPQQRVLVWGNGYYNGAIKTRKTTQPAEVTAEEAALERSQQLRELYETLLAGESTSEARACTALSPEDLTETEWFYLMCVSFSFPPPSGMPGKAYARRKHVWLSGANEVDSKTFSRAILAKSAKIQTVVCIPMLDGVVELGTTKKVREDVEFVELTKSFFYDHCKTNPKPALSEHSTYEVHEEAEDEEEVEEEMTMSEEMRLGSPDDEDVSNQNLHSDLHIESTHTLDTHMDMMNLMEEGGNYSQTVTTLLMSHPTSLLSDSVSTSSYIQSSFATWRVENGKEHQQVKTAPSSQWVLKQMIFRVPFLHDNTKDKRLPREDLSHVVAERRRREKLNEKFITLRSMVPFVTKMDKVSILGDTIAYVNHLRKRVHELENTHHEQQHKRTRTCKRKTSEEVEVSIIENDVLLEMRCEYRDGLLLDILQVLHELGIETTAVHTSVNDHDFEAEIRAKVRGKKASIAEVKRAIHQVIIHDTNL
As to B2, the binding result in test [2] and in test [3] was “binds” each time.

B3: cLUC-TT8 (protein, UniProt Q9FT81 1-518)
chain: B2 chain
Regarding B3, in test [1], the binding result is “binds”.

B4: TTG1 (… TESTA GLABRA 1) (protein, UniProt Q9XGN1 1-341)
chain: MDNSAPDSLSRSETAVTYDSPYPLYAMAFSSLRSSSGHRIAVGSFLEDYNNRIDILSFDSDSMTVKPLPNLSFEHPYPPTKLMFSPPSLRRPSSGDLLASSGDFLRLWEINEDSSTVEPISVLNNSKTSEFCAPLTSFDWNDVEPKRLGTCSIDTTCTIWDIEKSVVETQLIAHDKEVHDIAWGEARVFASVSADGSVRIFDLRDKEHSTIIYESPQPDTPLLRLAWNKQDLRYMATILMDSNKVVILDIRSPTMPVAELERHQASVNAIAWAPQSCKHICSGGDDTQALIWELPTVAGPNGIDPMSVYSAGSEINQLQWSSSQPDWIGIAFANKMQLLRV
With B4, the binding entry in test [1] was “no binding”.

B5: GL3 (GLABROUS3) (protein, UniProt Q9FN69 1-637)
chain: MATGQNRTTVPENLKKHLAVSVRNIQWSYGIFWSVSASQSGVLEWGDGYYNGDIKTRKTIQASEIKADQLGLRRSEQLSELYESLSVAESSSSGVAAGSQVTRRASAAALSPEDLADTEWYYLVCMSFVFNIGEGMPGRTFANGEPIWLCNAHTADSKVFSRSLLAKSAAVKTVVCFPFLGGVVEIGTTEHITEDMNVIQCVKTSFLEAPDPYATILPARSDYHIDNVLDPQQILGDEIYAPMFSTEPFPTASPSRTTNGFDQEHEQVADDHDSFMTERITGGASQVQSWQLMDDELSNCVHQSLNSSDCVSQTFVEGAAGRVAYGARKSRVQRLGQIQEQQRNVKTLSFDPRNDDVHYQSVISTIFKTNHQLILGPQFRNCDKQSSFTRWKKSSSSSSGTATVTAPSQGMLKKIIFDVPRVHQKEKLMLDSPEARDETGNHAVLEKKRREKLNERFMTLRKIIPSINKIDKVSILDDTIEYLQELERRVQELESCRESTDTETRGTMTMKRKKPCDAGERTSANCANNETGNGKKVSVNNVGEAEPADTGFTGLTDNLRIGSFGNEVVIELRCAWREGVLLEIMDVISDLHLDSHSVQSSTGDGLLCLTVNCKHKGSKIATPGMIKEALQRVAWIC
Consider B5, for which, in test [1], the binding result was “no binding”.

B6: EGL3 (ENHANCER OF GLABRA3) (protein, UniProt Q9CAD0 1-596)
chain: MATGENRTVPDNLKKQLAVSVRNIQWSYGIFWSVSASQPGVLEWGDGYYNGDIKTRKTIQAAEVKIDQLGLERSEQLRELYESLSLAESSASGSSQVTRRASAAALSPEDLTDTEWYYLVCMSFVFNIGEGIPGGALSNGEPIWLCNAETADSKVFTRSLLAKSASLQTVVCFPFLGGVLEIGTTEHIKEDMNVIQSVKTLFLEAPPYTTISTRSDYQEIFDPLSDDKYTPVFITEAFPTTSTSGFEQEPEDHDSFINDGGASQVQSWQFVGEEISNCIHQSLNSSDCVSQTFVGTTGRLACDPRKSRIQRLGQIQEQSNHVNMDDDVHYQGVISTIFKTTHQLILGPQFQNFDKRSSFTRWKRSSSVKTLGEKSQKMIKKILFEVPLMNKKEELLPDTPEETGNHALSEKKRREKLNERFMTLRSIIPSISKIDKVSILDDTIEYLQDLQKRVQELESCRESADTETRITMMKRKKPDDEEERASANCMNSKRKGSDVNVGEDEPADIGYAGLTDNLRISSLGNEVVIELRCAWREGILLEIMDVISDLNLDSHSVQSSTGDGLLCLTVNCKHKGTKIATTGMIQEALQRVAWIC
Take B6: the binding entry in test [1] is reported as “no binding”.

B7: PAP2 (protein, UniProt Q9ZTC3 1-249)
chain: MEGSSKGLRKGAWTAEEDSLLRLCIDKYGEGKWHQVPLRAGLNRCRKSCRLRWLNYLKPSIKRGRLSNDEVDLLLRLHKLLGNRWSLIAGRLPGRTANDVKNYWNTHLSKKHESSCCKSKMKKKNIISPPTTPVQKIGVFKPRPRSFSVNNGCSHLNGLPEVDLIPSCLGLKKNNVCENSITCNKDDEKDDFVNNLMNGDNMWLENLLGENQEADAIVPEATTAEHGATLAFDVEQLWSLFDGETVELD
On to B7, for which the binding entry in test [1] is given as “no binding”.
